Data: article PMC12054630
These are yes or no findings as the source states them, for the method shown. In cells and extracts the contact can be indirect. A yes stands for co-enrichment or nearness to the bait. Other partners may have been found.

Molecular target: T1, Sorbin and SH3 Domain Containing 2 (SORBS2), mouse heart (mouse (endogenous in mouse heart)) (UniProt Q3UTJ2)
T1 sequence: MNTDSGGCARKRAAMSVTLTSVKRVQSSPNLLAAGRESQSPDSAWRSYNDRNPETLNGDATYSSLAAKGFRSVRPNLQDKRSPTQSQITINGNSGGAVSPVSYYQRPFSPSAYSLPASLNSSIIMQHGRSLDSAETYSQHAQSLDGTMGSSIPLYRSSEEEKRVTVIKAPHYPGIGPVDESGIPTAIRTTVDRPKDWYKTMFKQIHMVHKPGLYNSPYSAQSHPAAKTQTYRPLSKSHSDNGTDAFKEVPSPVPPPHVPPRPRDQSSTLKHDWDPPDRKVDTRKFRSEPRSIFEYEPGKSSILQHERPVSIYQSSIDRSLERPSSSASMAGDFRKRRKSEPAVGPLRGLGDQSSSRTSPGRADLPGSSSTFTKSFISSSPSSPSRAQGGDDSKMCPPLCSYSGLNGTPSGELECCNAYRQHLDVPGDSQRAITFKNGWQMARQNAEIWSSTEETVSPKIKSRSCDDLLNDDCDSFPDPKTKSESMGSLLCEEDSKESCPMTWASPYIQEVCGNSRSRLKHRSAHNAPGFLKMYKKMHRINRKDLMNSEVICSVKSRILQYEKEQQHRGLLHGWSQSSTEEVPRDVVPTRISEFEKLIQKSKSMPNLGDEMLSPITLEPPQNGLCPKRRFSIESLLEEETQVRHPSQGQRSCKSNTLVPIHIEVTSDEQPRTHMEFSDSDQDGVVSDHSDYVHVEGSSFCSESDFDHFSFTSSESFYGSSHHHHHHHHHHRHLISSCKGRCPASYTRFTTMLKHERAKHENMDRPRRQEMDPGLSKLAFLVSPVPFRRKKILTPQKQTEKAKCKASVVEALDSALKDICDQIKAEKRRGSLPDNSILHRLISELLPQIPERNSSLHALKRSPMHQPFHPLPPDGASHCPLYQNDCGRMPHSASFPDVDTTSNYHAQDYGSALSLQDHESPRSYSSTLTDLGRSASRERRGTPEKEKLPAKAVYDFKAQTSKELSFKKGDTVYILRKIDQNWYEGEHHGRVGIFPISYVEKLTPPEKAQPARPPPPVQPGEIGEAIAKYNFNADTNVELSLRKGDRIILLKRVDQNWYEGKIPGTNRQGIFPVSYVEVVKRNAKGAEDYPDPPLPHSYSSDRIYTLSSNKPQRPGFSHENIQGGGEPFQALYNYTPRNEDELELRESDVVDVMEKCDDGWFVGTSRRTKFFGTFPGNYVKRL
Assay: affinity purification with mass spectrometry; left ventricular tissue of healthy (sham) and TAB mouse hearts lysed; immunoprecipitation with SORBS2 antibody on Dynabeads Protein G against isotype control; SDS-PAGE, digestion, mass spectrometry; n = 6 per condition

B1: Zyxin (protein, UniProt Q62523 1-564)
chain: MAAPRPPPAISVSVSAPAFYAPQKKFAPVVAPKPKVNPFRPGDSEPPVAAGAQRAQMGRVGEIPPPPPEDFPLPPPPLIGEGDDSEGALGGAFPPPPPPMIEEPFPPAPLEEDIFPSPPPPLEEEGGPEAPTQLPPQPREKVCSIDLEIDSLSSLLDDMTKNDPFKARVSSGYVPPPVATPFVPKPSTKPAPGGTAPLPPWKTPSSSQPPPQPQAKPQVQLHVQPQAKPHVQPQPVSSANTQPRGPLSQAPTPAPKFAPVAPKFTPVVSKFSPGAPSGPGPQPNQKMVPPDAPSSVSTGSPQPPSFTYAQQKEKPLVQEKQHPQPPPAQNQNQVRSPGGPGPLTLKEVEELEQLTQQLMQDMEHPQRQSVAVNESCGKCNQPLARAQPAVRALGQLFHITCFTCHQCQQQLQGQQFYSLEGAPYCEGCYTDTLEKCNTCGQPITDRMLRATGKAYHPQCFTCVVCACPLEGTSFIVDQANQPHCVPDYHKQYAPRCSVCSEPIMPEPGRDETVRVVALDKNFHMKCYKCEDCGKPLSIEADDNGCFPLDGHVLCRKCHSARAQT
In the case of B1, the binding is reported as “binds”.
